Measured values taken from paper doi:10.1101/2022.09.09.507138.
Results are given in words; binding and its absence hold for the method and conditions named. In cells and extracts the contact can be indirect. Some entries that bind do so weakly or less than the wild type. For some of these results: Sequences can lack the tags named with a protein.

Sequences of proteins named here, by UniProt entry; tags and fusion partners are left off.
UniProt Q99929: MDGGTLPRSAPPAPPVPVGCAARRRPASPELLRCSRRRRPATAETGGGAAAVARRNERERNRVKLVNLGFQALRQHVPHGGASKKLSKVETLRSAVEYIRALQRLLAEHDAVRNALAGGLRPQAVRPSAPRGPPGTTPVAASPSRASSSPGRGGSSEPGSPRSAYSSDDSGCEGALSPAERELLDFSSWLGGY

Assays:
HDAC7-Flag = target: T1, HDAC7-Flag (UniProt Q8WUI4); experiment: co-IP
T1 sequence: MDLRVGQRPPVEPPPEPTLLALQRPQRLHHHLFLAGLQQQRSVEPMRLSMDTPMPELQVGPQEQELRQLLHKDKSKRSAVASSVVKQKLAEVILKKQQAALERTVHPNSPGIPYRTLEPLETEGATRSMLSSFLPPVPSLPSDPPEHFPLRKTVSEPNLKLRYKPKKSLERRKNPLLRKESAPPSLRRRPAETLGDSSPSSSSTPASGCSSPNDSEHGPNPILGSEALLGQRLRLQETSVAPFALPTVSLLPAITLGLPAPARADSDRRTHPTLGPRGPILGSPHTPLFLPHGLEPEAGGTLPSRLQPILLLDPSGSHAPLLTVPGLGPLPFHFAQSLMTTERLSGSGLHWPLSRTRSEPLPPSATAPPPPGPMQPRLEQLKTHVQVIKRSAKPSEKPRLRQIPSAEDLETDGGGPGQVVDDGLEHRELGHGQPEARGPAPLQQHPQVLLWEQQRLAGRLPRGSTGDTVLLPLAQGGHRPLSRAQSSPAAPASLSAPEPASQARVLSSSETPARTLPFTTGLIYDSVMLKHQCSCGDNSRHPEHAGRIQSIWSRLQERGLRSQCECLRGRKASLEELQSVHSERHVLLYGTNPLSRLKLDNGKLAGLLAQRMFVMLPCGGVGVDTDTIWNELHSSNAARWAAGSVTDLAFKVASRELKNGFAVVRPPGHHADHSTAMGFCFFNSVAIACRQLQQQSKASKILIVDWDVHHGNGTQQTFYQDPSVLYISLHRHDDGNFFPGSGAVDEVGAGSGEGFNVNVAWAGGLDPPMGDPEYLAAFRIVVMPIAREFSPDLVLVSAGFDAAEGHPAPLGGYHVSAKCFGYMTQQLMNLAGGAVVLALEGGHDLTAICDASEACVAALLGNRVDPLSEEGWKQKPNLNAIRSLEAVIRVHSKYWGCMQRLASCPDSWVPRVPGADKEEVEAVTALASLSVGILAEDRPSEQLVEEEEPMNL

Myc-mSin3a = target: T2, Myc-mSin3a (UniProt Q60520); experiment: co-IP
T2 sequence: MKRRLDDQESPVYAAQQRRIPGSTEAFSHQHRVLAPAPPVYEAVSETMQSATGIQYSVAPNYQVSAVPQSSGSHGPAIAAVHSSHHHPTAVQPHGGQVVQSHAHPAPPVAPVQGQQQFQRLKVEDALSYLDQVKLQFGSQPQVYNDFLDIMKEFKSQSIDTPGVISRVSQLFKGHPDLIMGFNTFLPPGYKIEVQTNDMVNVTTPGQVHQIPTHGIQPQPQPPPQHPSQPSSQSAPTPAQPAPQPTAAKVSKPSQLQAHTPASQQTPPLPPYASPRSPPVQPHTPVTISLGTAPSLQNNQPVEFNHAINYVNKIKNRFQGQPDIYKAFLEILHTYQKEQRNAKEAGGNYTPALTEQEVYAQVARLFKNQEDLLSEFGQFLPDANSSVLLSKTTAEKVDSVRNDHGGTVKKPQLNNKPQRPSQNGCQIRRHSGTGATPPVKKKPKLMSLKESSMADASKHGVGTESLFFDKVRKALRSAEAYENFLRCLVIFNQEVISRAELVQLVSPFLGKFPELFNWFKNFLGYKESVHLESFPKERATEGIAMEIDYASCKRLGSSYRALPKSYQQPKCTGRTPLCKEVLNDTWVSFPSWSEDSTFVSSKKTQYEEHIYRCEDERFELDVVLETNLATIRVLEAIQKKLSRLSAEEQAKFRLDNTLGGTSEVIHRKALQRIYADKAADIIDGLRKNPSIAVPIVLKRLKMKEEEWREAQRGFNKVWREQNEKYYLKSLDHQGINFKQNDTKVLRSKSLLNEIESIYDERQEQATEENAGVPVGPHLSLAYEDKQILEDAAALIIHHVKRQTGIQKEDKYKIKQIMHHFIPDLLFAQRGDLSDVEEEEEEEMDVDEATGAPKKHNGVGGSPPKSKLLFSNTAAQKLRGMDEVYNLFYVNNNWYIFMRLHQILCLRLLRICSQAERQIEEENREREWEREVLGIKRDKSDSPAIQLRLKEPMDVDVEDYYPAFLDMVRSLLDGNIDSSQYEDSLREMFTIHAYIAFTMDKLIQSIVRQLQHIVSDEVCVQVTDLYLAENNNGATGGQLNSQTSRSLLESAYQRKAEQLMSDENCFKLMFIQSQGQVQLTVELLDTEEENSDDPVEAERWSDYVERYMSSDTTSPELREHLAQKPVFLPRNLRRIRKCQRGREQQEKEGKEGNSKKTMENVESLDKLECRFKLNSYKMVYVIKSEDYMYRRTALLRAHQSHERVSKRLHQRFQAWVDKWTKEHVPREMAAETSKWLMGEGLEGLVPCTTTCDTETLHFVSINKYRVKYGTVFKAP

[1] = target: T3, endogenous HDAC7 (SW480 cells) (human (endogenous in SW480)) (UniProt Q8WUI4); experiment: co-IP
T3 sequence: T1 sequence

[2] = target: T4, endogenous mSin3a (SW480 cells) (human (endogenous in SW480)) (UniProt Q96ST3); experiment: co-IP
T4 sequence: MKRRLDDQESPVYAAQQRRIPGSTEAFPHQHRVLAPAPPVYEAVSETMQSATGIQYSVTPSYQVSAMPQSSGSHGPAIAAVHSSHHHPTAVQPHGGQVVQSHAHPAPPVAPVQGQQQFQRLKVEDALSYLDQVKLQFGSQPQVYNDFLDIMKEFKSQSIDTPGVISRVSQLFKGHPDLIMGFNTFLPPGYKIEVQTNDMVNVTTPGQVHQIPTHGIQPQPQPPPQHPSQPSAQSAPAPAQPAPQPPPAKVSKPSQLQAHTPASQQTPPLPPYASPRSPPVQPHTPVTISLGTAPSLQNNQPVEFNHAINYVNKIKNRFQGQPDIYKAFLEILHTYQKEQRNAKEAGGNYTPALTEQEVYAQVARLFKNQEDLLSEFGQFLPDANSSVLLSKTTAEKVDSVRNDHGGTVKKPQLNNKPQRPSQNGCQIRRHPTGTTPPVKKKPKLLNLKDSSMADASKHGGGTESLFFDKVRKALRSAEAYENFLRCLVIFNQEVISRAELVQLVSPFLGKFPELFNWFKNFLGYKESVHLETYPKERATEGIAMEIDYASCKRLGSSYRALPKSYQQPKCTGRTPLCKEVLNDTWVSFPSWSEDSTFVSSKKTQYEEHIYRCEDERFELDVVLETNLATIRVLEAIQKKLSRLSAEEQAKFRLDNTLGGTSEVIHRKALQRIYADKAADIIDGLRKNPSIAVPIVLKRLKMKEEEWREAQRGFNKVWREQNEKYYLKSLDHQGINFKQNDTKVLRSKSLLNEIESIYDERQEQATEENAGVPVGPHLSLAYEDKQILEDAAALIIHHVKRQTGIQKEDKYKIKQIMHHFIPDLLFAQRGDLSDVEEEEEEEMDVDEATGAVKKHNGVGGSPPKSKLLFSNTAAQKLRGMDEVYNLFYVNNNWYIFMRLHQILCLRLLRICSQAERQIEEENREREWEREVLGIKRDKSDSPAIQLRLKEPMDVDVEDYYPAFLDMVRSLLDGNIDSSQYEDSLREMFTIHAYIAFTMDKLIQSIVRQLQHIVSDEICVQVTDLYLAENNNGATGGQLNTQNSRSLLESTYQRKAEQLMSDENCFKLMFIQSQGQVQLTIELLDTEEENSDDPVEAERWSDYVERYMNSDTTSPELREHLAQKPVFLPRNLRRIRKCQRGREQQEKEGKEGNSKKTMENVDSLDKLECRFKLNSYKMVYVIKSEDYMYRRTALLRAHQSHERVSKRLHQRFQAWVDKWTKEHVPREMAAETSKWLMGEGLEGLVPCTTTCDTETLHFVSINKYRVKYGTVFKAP

[3] = target: T3, endogenous HDAC7 (SW480 cells) (human (endogenous in SW480)); experiment: proximity ligation
[4] = target: T4, endogenous mSin3a (SW480 cells) (human (endogenous in SW480)); experiment: proximity ligation
[5] = target: endogenous Ascl2 (SW480 cells) (human (endogenous in SW480)) (UniProt Q99929); experiment: proximity ligation

Measured: binding

B1: Flag-p57 (protein, UniProt P49919 1-348)
chain: MGMSDVYLRSRTAMERLASSDTFPVIARSSACRSLFGPVDHEELGRELRMRLAELNAEDQNRWDFNFQQDVPLRGPGRLQWMEVDSESVPAFYRETVQVGRCRLQLGPRPPPVAVAVIPRSGPPAGEAPDGLEEAPEQPPSAPASAVVAEPTPPATPAPASDLTSDPIPEVTLVATSDPTPDPIPDANPDVATRDGEEQVPEQVSEQGEESGAEPGDELGTEPVSEQGEEQGAEPVEEKDEEPEEEQGAEPVEEQGAEPVEEQNGEPVEEQDENQEQRGQELKDQPLSGIPGRPAPGTAAANANDFFAKRKRTAQENKASNDVPPGCPSPNVAPGVGAVEQTPRKRLR
binds: HDAC7-Flag | Myc-mSin3a

B2: endogenous p57^Kip2 (SW480 cells) (protein, UniProt P49918 1-316)
chain: MSDASLRSTSTMERLVARGTFPVLVRTSACRSLFGPVDHEELSRELQARLAELNAEDQNRWDYDFQQDMPLRGPGRLQWTEVDSDSVPAFYRETVQVGRCRLLLAPRPVAVAVAVSPPLEPAAESLDGLEEAPEQLPSVPVPAPASTPPPVPVLAPAPAPAPAPVAAPVAAPVAVAVLAPAPAPAPAPAPAPAPVAAPAPAPAPAPAPAPAPAPAPDAAPQESAEQGANQGQRGQEPLADQLHSGISGRPAAGTAAASANGAAIKKLSGPLISDFFAKRKRSAPEKSSGDVPAPCPSPSAAPGVGSVEQTPRKRLR
not listed: HDAC7-Flag | Myc-mSin3a
binds: all other assays above
